Assay results reported in publication PMC7819943, “Rice protein-binding microarrays: a tool to detect cis-acting elements near promoter regions in rice”.
The other results are listed elsewhere or left out.

Chains of the proteins cited; added tags and fusions are not shown.
UniProt Q0JBA9, entry or part of it: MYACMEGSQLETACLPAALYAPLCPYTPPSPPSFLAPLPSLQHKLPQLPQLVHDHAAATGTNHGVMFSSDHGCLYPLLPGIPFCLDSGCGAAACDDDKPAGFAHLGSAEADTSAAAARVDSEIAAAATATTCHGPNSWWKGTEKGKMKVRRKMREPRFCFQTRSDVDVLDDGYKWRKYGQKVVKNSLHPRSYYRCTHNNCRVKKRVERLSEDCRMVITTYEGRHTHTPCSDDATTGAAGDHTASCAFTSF

The sequences below were run against OsWRKY34 (Oryza sativa, UniProt Q0JBA9 1-250) (assay: protein-binding microarray (RPBM); PBS, 2% BSA, 51.3 ng/ul salmon testes DNA, 50 uM zinc acetate, 200 nM TF, 25 C, 1 h; high values mean tight binding). Conditions: protein: recombinant; tags: N-terminal polyhistidine and DsRed monomer fusion (pET32a); label: CyDye5-dUTP incorporated in the synthesized complementary strand; 3' TTTTT single-stranded linker to array surface; dsDNA, one strand shown.
In short: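 For the binding signal, per-feature fluorescence intensity was read in arbitrary units on an Axon 4000B scanner. Before scanning, a 2% BSA-blocked custom Agilent array made double-stranded with Cy5-dUTP was washed after 1 h at 25 °C with 200 nM protein and 50 µM zinc acetate. The proteins were Ni–NTA-purified transcription factors with N-terminal polyhistidine and DsRed fusions, expressed in E. coli BL21-CodonPlus.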

Sequence | binding signal
TGCACAGTGCAAACCATTAACCAGCGGCATTATTATTATTCGGAGTCACCTAGTGCAG | 8100 fluorescence intensity (a.u.)
CCGTCGCGTTCGCCGACTCCGGCAGCTTCATATTCCTCGTCGGAGTCACCTAGTGCAG | 8800 fluorescence intensity (a.u.)
GGGAGGTGTTGTTTTTTTTTTTTTTATCCCTTCCCATTTTCGGAGTCACCTAGTGCAG | 15300 fluorescence intensity (a.u.)
TCACTTACACCCGCTTACACCTAACTTATATATATAATTACGGAGTCACCTAGTGCAG | 8230 fluorescence intensity (a.u.)
CATGGAGGGAGGGAGGGAGGCGGAAGCGGAGGCGTGGGAGCGGAGTCACCTAGTGCAG | 9980 fluorescence intensity (a.u.)
GGGTTTCAATCATTTAGGTGGACGTCCACTCATTTATTGCCGGAGTCACCTAGTGCAG | 8640 fluorescence intensity (a.u.)
ATCGCCTTTGACCGCTGACCAAGCCAGACCAGTAGTAGTACGGAGTCACCTAGTGCAG | 8410 fluorescence intensity (a.u.)
TGTTTTATTTTTAGGATACTTCTACCTTTTTTCGCTTTGACGGAGTCACCTAGTGCAG | 9510 fluorescence intensity (a.u.)
TAGACTCTAGCCTGTTCCGCCCTCTGCTCCATGTACGGTCCGGAGTCACCTAGTGCAG | 8470 fluorescence intensity (a.u.)
GATTTTTTTTCAAACTTCTTTACGTTTAACCTAATTTATACGGAGTCACCTAGTGCAG | 8180 fluorescence intensity (a.u.)
CCAACAAACACCGCGCCTCGCCTCGTCTCCTCCGATAGCGCGGAGTCACCTAGTGCAG | 8150 fluorescence intensity (a.u.)
CTTCACGTGTAAGTTTTAAAATTTATATTGGATTTGGTCTCGGAGTCACCTAGTGCAG | 8020 fluorescence intensity (a.u.)
TGTTGCTGTTGCACATATAGTTTCTTCTTGGTCTTTCCAACGGAGTCACCTAGTGCAG | 8480 fluorescence intensity (a.u.)
GATCTATCATTCCATCTAGGCATGTCTTCGTGTATCATTCCGGAGTCACCTAGTGCAG | 9300 fluorescence intensity (a.u.)
GAGGGGAGGAAGAAGAGGTGGGTGAGAATGACACGTGGGGCGGAGTCACCTAGTGCAG | 10600 fluorescence intensity (a.u.)
ACTATCGGTACATATCTTATTGACATCATGCCTATATGACCGGAGTCACCTAGTGCAG | 10200 fluorescence intensity (a.u.)
TCTTGCGAGTTTCCTTAGCCCACTCTTCTTCTTCTTTATCCGGAGTCACCTAGTGCAG | 10700 fluorescence intensity (a.u.)
ACACGTTAAAACCCTTTTCCGGTGGCCGGTGTAACGCGCGCGGAGTCACCTAGTGCAG | 8080 fluorescence intensity (a.u.)
ATCCGTAACTCTGACAAGCTCGAGTTGCTCGTATATTTTACGGAGTCACCTAGTGCAG | 8640 fluorescence intensity (a.u.)
CACATATATATACACGATGGCGCCAAACACATTTCTCAACCGGAGTCACCTAGTGCAG | 9310 fluorescence intensity (a.u.)
ATTTTTACGTCAAACATTGTTACCATTTTTGTTTTTCCTCCGGAGTCACCTAGTGCAG | 8160 fluorescence intensity (a.u.)

Sequence | binding signal
TCCGTGTTTGTAATGTGTTTCCTTAAAAAAATTAATGTTCCGGAGTCACCTAGTGCAG | 8860 fluorescence intensity (a.u.)
CACATCTACGTCCTTGTCCACGCGGTGTTAAAATTTCACCCGGAGTCACCTAGTGCAG | 9830 fluorescence intensity (a.u.)
CTTTAATTTTTTTTGAATTCATTTCTTCACGTAAACATCCCGGAGTCACCTAGTGCAG | 11300 fluorescence intensity (a.u.)
GAAGCCCAATTGTGTACGTACTGCTTTTTTTGGAATGGAACGGAGTCACCTAGTGCAG | 10400 fluorescence intensity (a.u.)
GTTCTTGTTTTCTTCCTTTTTGATAATACTTCGCCATTTTCGGAGTCACCTAGTGCAG | 9260 fluorescence intensity (a.u.)
CTTATCAATCTGTTTATTAATATTTACGCAGTATTGCAGTCGGAGTCACCTAGTGCAG | 9020 fluorescence intensity (a.u.)
GCTTGTGTGTTTTGCACGTCGACTAACTAACGGCCTCTCACGGAGTCACCTAGTGCAG | 9330 fluorescence intensity (a.u.)
TCTCTGTTTTTTGGCAGTTTGTATGCCAACATGTGCTAATCGGAGTCACCTAGTGCAG | 9040 fluorescence intensity (a.u.)
TTGTATATGAATCCGGACATCTAAACTAGGCATAAATCCACGGAGTCACCTAGTGCAG | 8020 fluorescence intensity (a.u.)
CGCTTCACTCACCTCGTCGTCTTCACTTCACTTCACGCACCGGAGTCACCTAGTGCAG | 14300 fluorescence intensity (a.u.)
ACTCCTGATCCCATGTCACCGACAACATGCATATAGAAGTCGGAGTCACCTAGTGCAG | 8320 fluorescence intensity (a.u.)
AGAGCCGAACCCACCATTCCTGTACATATCGTCCTCCTCTCGGAGTCACCTAGTGCAG | 9500 fluorescence intensity (a.u.)
ACATATGCTAAAAAGTCAACGGTGTCAAACATTTTGAAACCGGAGTCACCTAGTGCAG | 15900 fluorescence intensity (a.u.)
CGTCTCTCTCTCTCGCCCAAGTCCACACTTCGTCTCTCTCCGGAGTCACCTAGTGCAG | 8090 fluorescence intensity (a.u.)
TTGTTGTTTACCGTCACACTTAATTACCAGGTCATTTACACGGAGTCACCTAGTGCAG | 9280 fluorescence intensity (a.u.)
CTGTGAAAGGGAAGCTCGATTTCGTTGGTTTGGGGAGGAACGGAGTCACCTAGTGCAG | 9280 fluorescence intensity (a.u.)
TCTTGTGTGTTTGTTCCGATTTGCTGCTCAATCTGTCCATCGGAGTCACCTAGTGCAG | 10300 fluorescence intensity (a.u.)
GGGTTGGGTCTCTCTCTCTCTCGGTGTCGCCGTCTTGGCTCGGAGTCACCTAGTGCAG | 14800 fluorescence intensity (a.u.)
CTGCATTCCGAGGGCTCGGGTGGTGGTGGTGGTGGTAGCTCGGAGTCACCTAGTGCAG | 8440 fluorescence intensity (a.u.)
GGACTTGTAATTCAGAGCCTACTGTTTTTTTTTAAATCTACGGAGTCACCTAGTGCAG | 10100 fluorescence intensity (a.u.)
ACGCGCACTACTTTCCTAACTCACATCTCTTGTTTTCCACCGGAGTCACCTAGTGCAG | 11000 fluorescence intensity (a.u.)

Already shown: an excerpt of the list.
Sequence | binding signal
GAAGCCCAATTGTGTACGTACTGCTTTTTTTGGAATGGAACGGAGTCACCTAGTGCAG | 10400 fluorescence intensity (a.u.)
GTTCTTGTTTTCTTCCTTTTTGATAATACTTCGCCATTTTCGGAGTCACCTAGTGCAG | 9260 fluorescence intensity (a.u.)
CTTATCAATCTGTTTATTAATATTTACGCAGTATTGCAGTCGGAGTCACCTAGTGCAG | 9020 fluorescence intensity (a.u.)
GCTTGTGTGTTTTGCACGTCGACTAACTAACGGCCTCTCACGGAGTCACCTAGTGCAG | 9330 fluorescence intensity (a.u.)
TCTCTGTTTTTTGGCAGTTTGTATGCCAACATGTGCTAATCGGAGTCACCTAGTGCAG | 9040 fluorescence intensity (a.u.)
TTGTATATGAATCCGGACATCTAAACTAGGCATAAATCCACGGAGTCACCTAGTGCAG | 8020 fluorescence intensity (a.u.)

Remaining list, next part:

Sequence | binding signal
CACTATTCACGTTCAACGTTTGACCGTTTATCTTATTTGACGGAGTCACCTAGTGCAG | 8090 fluorescence intensity (a.u.)
TCTCTCATGTCTGCCTTTTGAGCACATAAACACACCACCCCGGAGTCACCTAGTGCAG | 8610 fluorescence intensity (a.u.)
AGCACCAGTTGACCGCATTTCATTTCCCTCCTCCCTCAATCGGAGTCACCTAGTGCAG | 8380 fluorescence intensity (a.u.)
ACAATGCCACCCTTACATGCCGGGAGACCGGGGCCTCTGCCGGAGTCACCTAGTGCAG | 9600 fluorescence intensity (a.u.)
CGTGTGGTTGGTGTGAGAGAATGAAATGGATGAAATCTGGCGGAGTCACCTAGTGCAG | 9450 fluorescence intensity (a.u.)
AAAACCCCAGATGGCACCCACCCACAACGCAGCCTTCGCCCGGAGTCACCTAGTGCAG | 8080 fluorescence intensity (a.u.)
TACATAGTTGGATGTGGGATGGTGGTTAGGGGTAGAATGACGGAGTCACCTAGTGCAG | 9140 fluorescence intensity (a.u.)
TTGTGGAGCTCCCTTATGAATGTATTTGCTCTCATTGAATCGGAGTCACCTAGTGCAG | 8410 fluorescence intensity (a.u.)
CCTTTGACTTTTTGATAAACGTTTGACCTTTCGTCTTATTCGGAGTCACCTAGTGCAG | 22800 fluorescence intensity (a.u.)
ATCCGAATCCGCTCCATTTTCACCCCTATCTGCTACATTACGGAGTCACCTAGTGCAG | 8490 fluorescence intensity (a.u.)
ACCAAATCGCGTTTAATTTTTCGCGCGCCTCCTCTAAACCCGGAGTCACCTAGTGCAG | 8150 fluorescence intensity (a.u.)
ACTGCATGCTTAGTTGATTACTCTCTCCATTCCATTTTAACGGAGTCACCTAGTGCAG | 9190 fluorescence intensity (a.u.)
ACCATCCACACAAGTTCTTTATTTCTGAGTAAATCGCACTCGGAGTCACCTAGTGCAG | 9760 fluorescence intensity (a.u.)
CACACTATAGCTAGTACTAGTACTAGTACTACTTAAACTACGGAGTCACCTAGTGCAG | 8120 fluorescence intensity (a.u.)
ATAATAATTAATAAAGATTTTGTTGTTGGTTTGGGGATTTCGGAGTCACCTAGTGCAG | 9550 fluorescence intensity (a.u.)
GTAAGTATTATTTTTTCCGTGTCTTCGTCCTATGTGGTAGCGGAGTCACCTAGTGCAG | 10900 fluorescence intensity (a.u.)
GGTTCGCCGCTTAGCTCGCTTGTATCCCCGTACGAGTACTCGGAGTCACCTAGTGCAG | 9490 fluorescence intensity (a.u.)
CGGTGTAGTCCAGTTCGGCGGTCTCGTCAATCGACCTCGACGGAGTCACCTAGTGCAG | 8110 fluorescence intensity (a.u.)
TGTACCGTTGGTTTCCGTCTTTTTAAACATGTGAGAGGGGCGGAGTCACCTAGTGCAG | 9410 fluorescence intensity (a.u.)
ACTTGTCCATTTCTCAGTTAAAGTTTGTATCATTATGTCTCGGAGTCACCTAGTGCAG | 8030 fluorescence intensity (a.u.)
CCAATCTCACTTGCGTCTCATTTTTTCCCAACTTACTAAACGGAGTCACCTAGTGCAG | 10800 fluorescence intensity (a.u.)

Sequence | binding signal
TAGCTCGTCTTTCGTCTCTGTGTGCGCGTGTTGTTTTTTTCGGAGTCACCTAGTGCAG | 14100 fluorescence intensity (a.u.)
GGGGAGTATCGGTTCTGGCATCGTACTAAACGGTATTGTCCGGAGTCACCTAGTGCAG | 9220 fluorescence intensity (a.u.)
TGACGCCGTTAACTTTTTCTCACATATTTGACTATTTGTCCGGAGTCACCTAGTGCAG | 10900 fluorescence intensity (a.u.)
AACGAGGGATGGGTAGTAAGGGATGGGAACTAATCTTGCCCGGAGTCACCTAGTGCAG | 8530 fluorescence intensity (a.u.)
CCACCGCCGATCCTTTCGTTCCCCACTCTTCCAGAACGGACGGAGTCACCTAGTGCAG | 8490 fluorescence intensity (a.u.)
CGAACCCCGACGACCACCACCGCCCGGCCGCCGCCGCCGCCGGAGTCACCTAGTGCAG | 8420 fluorescence intensity (a.u.)
ATTTTTACTTATTTTTTATCACTCACTTTGATACCTCAAACGGAGTCACCTAGTGCAG | 8730 fluorescence intensity (a.u.)
ATCGGGTGAAGGGAAGGGTGTGTTTTAGTTCAAGCTAAAACGGAGTCACCTAGTGCAG | 11000 fluorescence intensity (a.u.)
ATTTTGTGGTGCAATCCCTGGCTACCAATTTCCATTTTTCCGGAGTCACCTAGTGCAG | 11000 fluorescence intensity (a.u.)
TACTATCGTTTTAAAAGCTTGGCAGTATTTTCATTTTCTTCGGAGTCACCTAGTGCAG | 9200 fluorescence intensity (a.u.)
ATACACACAATATATTGGAGTCCGTGCTGCAGTTTTCCTTCGGAGTCACCTAGTGCAG | 8130 fluorescence intensity (a.u.)
ACCACCATCTTCTACCGGATCTGGCGGCCCCTGTGCAAGACGGAGTCACCTAGTGCAG | 9120 fluorescence intensity (a.u.)
TTCAAATTTTTTCTATCTCTCTTTTCCTTTTCCCCATTATCGGAGTCACCTAGTGCAG | 10300 fluorescence intensity (a.u.)
AGCTTGGTGTTTTTTTGTGGGCATTTCTGACATGATTTTCCGGAGTCACCTAGTGCAG | 16000 fluorescence intensity (a.u.)
TCCATCGTCACAACCTTCAGTACTCACATTACTCTATATACGGAGTCACCTAGTGCAG | 8570 fluorescence intensity (a.u.)
CATTACATTTTTTTCTCTCTTGTTTTTCGGCGGCTGCCGCCGGAGTCACCTAGTGCAG | 9420 fluorescence intensity (a.u.)
AAAGAGACCTCTGTTGCTGTGATATTCTGTCTTCCTGTGACGGAGTCACCTAGTGCAG | 10200 fluorescence intensity (a.u.)
ATCACTCATGTTGGATATTATATTTTGGTTTGAGCATCCTCGGAGTCACCTAGTGCAG | 9350 fluorescence intensity (a.u.)
ACAGGCATATTGGTCCCTAATCCATTTCTTTTCTATATGACGGAGTCACCTAGTGCAG | 9120 fluorescence intensity (a.u.)
GGCCATAGCGTGTATTGTTGTGTTTGTGTGTAAAATTTTTCGGAGTCACCTAGTGCAG | 11300 fluorescence intensity (a.u.)
ATTGCTTCTTGGAGTTAAACCCATTAGGGCCCATTCTCCTCGGAGTCACCTAGTGCAG | 8800 fluorescence intensity (a.u.)
